Data taken from patent US20190040153A1 (Novartis, published 2019).
No constants are given. Whether binding was seen depends on the method and setting. Binding calls can cover weak binding; strength is not graded here.

Biological target: human β-klotho extracellular domain (human)
Assay: hydrogen deuterium exchange epitope mapping of the mAb-β-klotho ECD complex

binding: binds
B1: version of NOV004 that has a human IgG1-LALA isotype (antibody, V domains shown)
VH: EVQLVESGGGLVKPGGSLRLSCAVSGYSITSGYTWHWVRQAPGKGLEWLSYIHYSVYTNYNPSVKGRFTISRDTAKNSFYLQMNSLRAEDTAVYYCARRTTSLERYFDVWGQGTLVTVSS
VL: DIQMTQSPSSLSASVGDRVTITCQASQDISNYLNWYQQKPGKAPKLLIYYTSRLQSGVPSRFTGSGSGADYTFTISSLQPEDIATYFCQQGNTLPYTFGQGTKLEIK
